{
  "source": "patent US20150140109A1",
  "about": "“DOCETAXEL-BASED PROLONGED-RELEASE CANCER TREATMENT DRUG” (OY FILANA LTD, priority 2012, published 2015)",
  "test_system": "acinic cell carcinoma of the glandula mammaria of the NZB mouse Ca 755",
  "assay": "Antitumor activity in mice inoculated with Ca755 mammary adenocarcinoma (tumor growth kinetics, lifetime)",
  "type": "in vivo, C57B1/6 female mice",
  "conditions": "after introducing the preparation",
  "procedure": "To investigate the antitumor activity of a new dosage form of docetaxel in the composition with PLGA 50/50 the acinic cell carcinoma of the glandula mammaria of the NZB mouse Ca 755 was chosen. As the comparison object free docetaxel substance was used. The experiments were carried out on C57B1/6 female mice with the body weight of 18-20 g.\nThe anti-tumor activity of the preparations under research was estimated on the basis of the comparative analysis of tumor growth kinetics and comparing the lifetime in test groups and control groups of animals.\nThe introduction of both the docetaxel-based prolonged-release drug and the free docetaxel was started 48 hours after tumor inoculation.",
  "note": "Some entries share one result that the patent states for a list of compounds.",
  "data": [
    {"smiles": "CC(=O)O[C@@]12CO[C@@H]1C[C@H](O)[C@@]1(C)C(=O)[C@H](O)C3=C(C)[C@@H](OC(=O)[C@H](O)[C@@H](NC(=O)OC(C)(C)C)c4ccccc4)C[C@@](O)([C@@H](OC(=O)c4ccccc4)[C@H]21)C3(C)C", "note": "[docetaxel substance, docetaxel]", "values": [
      {"measurement": "time at which the tumor growth inhibiting effect starts to occur", "result": "7 to 8", "unit": "days"}
    ]}
  ]
}
